# Reference: the supplement of paper PMC4604168 (melanoma cell lines)
# The list shows a part of the results. Repeats are few or missing, and single values can be far off.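 Cells were imaged in 1,536-well plates, and nuclei stained with an antibody against cleaved PARP were counted against all DNA-stained nuclei to give the apoptosis fraction. Screening doses were chosen to leave most cells alive, and resting and induced cleaved-PARP levels differ strongly between cell lines.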
# Key:
# Experiment in all cases: cleaved PARP positive nuclei fraction relative to DMSO control; melanoma cells; higher = more apoptosis
# Settings in all cases: library dose: low library concentration; 72 h
# [1] = system: MZ2-MEL
# [2] = system: MeWo
# [3] = system: RPMI7951
# [4] = system: RVH-421
# [5] = system: SkMel28
# [6] = system: SkMel2
# [7] = system: SkMel30
# [8] = system: UACC62
# [9] = system: WM115
# [10] = system: WM1716
# [11] = system: WM1745
# [12] = system: WM3526
# [13] = system: WM3619
# [14] = system: WM451Lu
Structure (SMILES),cleaved PARP positive nuclei fraction [1] [%],cleaved PARP positive nuclei fraction [2] [%],cleaved PARP positive nuclei fraction [3] [%],cleaved PARP positive nuclei fraction [4] [%],cleaved PARP positive nuclei fraction [5] [%],cleaved PARP positive nuclei fraction [6] [%],cleaved PARP positive nuclei fraction [7] [%],cleaved PARP positive nuclei fraction [8] [%],cleaved PARP positive nuclei fraction [9] [%],cleaved PARP positive nuclei fraction [10] [%],cleaved PARP positive nuclei fraction [11] [%],cleaved PARP positive nuclei fraction [12] [%],cleaved PARP positive nuclei fraction [13] [%],cleaved PARP positive nuclei fraction [14] [%]
"CCCS(=O)(=O)Nc1ccc(F)c(C(=O)c2c[nH]c3ncc(Cl)cc23)c1F + Nc1cccc2c1CN(C1CCC(=O)NC1=O)C2=O [lenalidomide] (first compound 0.08 µM, partner dose 1 µM)",74.2,94.3,346,330,127,41.9,65.9,89.5,75.3,64.8,62.5,49.7,95.4,74.9
"Nc1ccn([C@@H]2O[C@H](CO)[C@@H](O)C2(F)F)c(=O)n1 [gemcitabine] + Cn1nnc2c(C(N)=O)ncn2c1=O [temozolomide] (first compound 0.0004 µM, partner dose 2 µM)",122,123,86.4,204,101,58.5,202,51,101,181,111,114,111,45.4
"C=C(c1ccc(C(=O)O)cc1)c1cc2c(cc1C)C(C)(C)CCC2(C)C [Bexarotene] + Cc1nc(Nc2ncc(C(=O)Nc3c(C)cccc3Cl)s2)cc(N2CCN(CCO)CC2)n1 [dasatanib] (first compound 2 µM, partner dose 0.004 µM)",141,111,96.4,171,134,97.3,49.3,130,77.8,177,132,50.2,110,107
"CCCS(=O)(=O)Nc1ccc(F)c(C(=O)c2c[nH]c3ncc(Cl)cc23)c1F + C=CCNC1=C2C[C@@H](C)C[C@H](OC)[C@H](O)[C@@H](C)/C=C(\C)[C@H](OC(N)=O)[C@@H](OC)/C=C\C=C(/C)C(=O)NC(=CC1=O)C2=O [Tanespimycin] (first compound 0.08 µM, partner dose 0.002 µM)",106,41,235,109,231,384,51.7,50.9,168,224,95.3,117,84.1,23.9
"Nc1nc(F)nc2c1ncn2[C@@H]1O[C@H](CO)[C@@H](O)[C@@H]1O [fludarabine] + Nc1cccc2c1CN(C1CCC(=O)NC1=O)C2=O [lenalidomide] (first compound 0.2 µM, partner dose 1 µM)",44.3,1440,189,61.6,115,434,1440,59.7,172,297,92.8,1800,77.7,237
"CS(=O)(=O)CCNCc1ccc(-c2ccc3ncnc(Nc4ccc(OCc5cccc(F)c5)c(Cl)c4)c3c2)o1 [lapatinib] + CCCS(=O)(=O)Nc1ccc(F)c(C(=O)c2c[nH]c3ncc(Cl)cc23)c1F [PLX4720] (first compound 0.8 µM, partner dose 0.08 µM)",100,119,95.3,47.5,79.7,89.4,62.6,209,87.9,128,96.8,75.3,92.6,73.4
"Nc1ncn([C@H]2C[C@H](O)[C@@H](CO)O2)c(=O)n1 [decitabine] + Nc1cccc2c1CN(C1CCC(=O)NC1=O)C2=O [lenalidomide] (first compound 0.1 µM, partner dose 1 µM)",37.3,269,98.8,75.9,44,106,118,81.5,120,41.4,119,303,102,42.8
"Cn1c(=O)n(-c2ccc(C(C)(C)C#N)cc2)c2c3cc(-c4cnc5ccccc5c4)ccc3ncc21 + Nc1cccc2c1CN(C1CCC(=O)NC1=O)C2=O [lenalidomide] (first compound 0.004 µM, partner dose 1 µM)",78.3,66,93.9,65.8,84.5,98.7,60.1,190,209,170,199,102,102,83.1
"Cn1c(=O)n(-c2ccc(C(C)(C)C#N)cc2)c2c3cc(-c4cnc5ccccc5c4)ccc3ncc21 + CC(=O)c1c(C)c2cnc(Nc3ccc(N4CCNCC4)cn3)nc2n(C2CCCC2)c1=O [palbociclib] (first compound 0.004 µM, partner dose 0.04 µM)",157,42.8,163,300,72.1,80.4,38.9,158,78,63.8,121,62.8,120,97.1
"CN1CCN(c2ccc3nc(-c4c(N)c5c(F)cccc5[nH]c4=O)[nH]c3c2)CC1 [Dovitinib] + Nc1ncn([C@H]2C[C@H](O)[C@@H](CO)O2)c(=O)n1 [decitabine] (first compound 0.1 µM, partner dose 0.1 µM)",60.2,1000,209,100,101,95.1,267,259,114,921,124,105,110,178
"CN1CCN(c2ccc3nc(-c4c(N)c5c(F)cccc5[nH]c4=O)[nH]c3c2)CC1 [Dovitinib] + COCC[n+]1c2c(n(Cc3cnccn3)c1C)C(=O)c1ccccc1C2=O [YM155] (first compound 0.1 µM, partner dose 0.0004 µM)",27.8,137,135,71.8,95,109,460,192,157,227,107,35.9,106,57.2
"Nc1ccn([C@@H]2O[C@H](CO)[C@@H](O)C2(F)F)c(=O)n1 [gemcitabine] + COc1ccc(Cl)c(Nc2nc3ccccc3nc2NS(=O)(=O)c2cccc(NC(=O)C(C)(C)N)c2)c1 [XL147] (first compound 0.0004 µM, partner dose 0.8 µM)",73.9,103,87.9,155,66.3,84.2,196,28.4,153,59.1,136,42.6,115,76.3
"CC(C)C[C@H](NC(=O)[C@H](Cc1ccccc1)NC(=O)c1cnccn1)B(O)O [Bortezomib] + COCC[n+]1c2c(n(Cc3cnccn3)c1C)C(=O)c1ccccc1C2=O [YM155] (first compound 0.001 µM, partner dose 0.0004 µM)",261,196,223,153,92.6,88.8,107,188,38.1,796,104,46.7,425,114
"C[C@@H](Oc1cc(-c2cnn(C3CCNCC3)c2)cnc1N)c1c(Cl)ccc(F)c1Cl [Crizotinib] + Cn1nnc2c(C(N)=O)ncn2c1=O [temozolomide] (first compound 0.2 µM, partner dose 2 µM)",158,97.1,106,97.8,46.2,109,112,25.9,68.3,72,104,34.8,80,75
"CCCS(=O)(=O)Nc1ccc(F)c(C(=O)c2c[nH]c3ncc(Cl)cc23)c1F + Cc1nc(Nc2ncc(C(=O)Nc3c(C)cccc3Cl)s2)cc(N2CCN(CCO)CC2)n1 [dasatanib] (first compound 0.08 µM, partner dose 0.004 µM)",156,31.9,169,150,52.3,117,76.6,225,208,51.3,136,72.4,111,121

# Complete entries, quoted from the list. Order of values: cleaved PARP positive nuclei fraction [1] [%] | cleaved PARP positive nuclei fraction [2] [%] | cleaved PARP positive nuclei fraction [3] [%] | cleaved PARP positive nuclei fraction [4] [%] | cleaved PARP positive nuclei fraction [5] [%] | cleaved PARP positive nuclei fraction [6] [%] | cleaved PARP positive nuclei fraction [7] [%] | cleaved PARP positive nuclei fraction [8] [%] | cleaved PARP positive nuclei fraction [9] [%] | cleaved PARP positive nuclei fraction [10] [%] | cleaved PARP positive nuclei fraction [11] [%] | cleaved PARP positive nuclei fraction [12] [%] | cleaved PARP positive nuclei fraction [13] [%] | cleaved PARP positive nuclei fraction [14] [%]
# C=C(c1ccc(C(=O)O)cc1)c1cc2c(cc1C)C(C)(C)CCC2(C)C [Bexarotene] + Cc1nc(Nc2ncc(C(=O)Nc3c(C)cccc3Cl)s2)cc(N2CCN(CCO)CC2)n1 [dasatanib] (first compound 2 µM, partner dose 0.004 µM) in the list: 141 | 111 | 96.4 | 171 | 134 | 97.3 | 49.3 | 130 | 77.8 | 177 | 132 | 50.2 | 110 | 107
# C[C@@H](Oc1cc(-c2cnn(C3CCNCC3)c2)cnc1N)c1c(Cl)ccc(F)c1Cl [Crizotinib] + Cn1nnc2c(C(N)=O)ncn2c1=O [temozolomide] (first compound 0.2 µM, partner dose 2 µM) in the list: 158 | 97.1 | 106 | 97.8 | 46.2 | 109 | 112 | 25.9 | 68.3 | 72 | 104 | 34.8 | 80 | 75
